According to patent publication US10064928B2, “Peptides and combination of peptides for use in immunotherapy against CLL and other cancers” (IMMATICS BIOTECHNOLOGIES GMBH, priority 2015, dated 2018):

How the values were obtained:
[1] = tested on: CLL samples compared to a panel of normal tissues; assay: Identification and label-free relative LC-MS quantitation of HLA-presented peptides (presentation profiles and scores); parameters: species or system human; key: very highly over-presented on tumors compared to a panel of normal tissues (+++); highly over-presented on tumors compared to a panel of normal tissues (++); over-presented on tumors compared to a panel of normal tissues (+); conditions: presentation score; over-presentation on tumors (CLL samples) compared to a panel of normal tissues
[2] = tested on: other tumor types (e.g. non-Hodgkin lymphoma, lung cancer); assay: Presentation of the peptides on additional tumor types (LC-MS, Tables 4A/4B, FIG. 1); parameters: species or system human; conditions: for Other relevant organs/diseases: Table 4A: additional tumor types where the peptide was over-presented on more than 5% of the measured tumor samples, or presented on more than 5% with ratio of geometric means tumor vs normal tissues larger than 3; for Additional Entities: Table 4B: additional tumour types with over-presentation (including specific presentation) on more than 5% of the measured tumour samples, or presentation on more than 5% with ratio of geometric means tumour vs normal tissues larger than 3, extended normal tissue panel

Substance | Peptide Presentation [1] | Other relevant organs/diseases [2] | Additional Entities [2]
208 (ILLKTEGINL; listed as Homo sapiens) [compound 208] | ++ | NHL, BRCA, OC, Urinary bladder cancer | Melanoma, HNSCC
209 (ILQAELPSL; listed as Homo sapiens) [compound 209] | ++ | NHL | 
210 (KLLVQDFFL; listed as Homo sapiens) [compound 210] | +++ | HCC, NHL | 
211 (LIDVKPLGV; listed as Homo sapiens) [compound 211] | +++ | NHL, BRCA, Melanoma | RCC, Brain Cancer, HCC, Esophageal Cancer, HNSCC
212 (NIIEAINELLV; listed as Homo sapiens) [compound 212] | ++ | NHL, BRCA, Melanoma | Uterine Cancer, AML, HNSCC
213 (RLLYQLVFL; listed as Homo sapiens) [compound 213] | ++ | NHL, Esophageal Cancer, Urinary bladder cancer, Gallbladder Cancer, Bile Duct Cancer | 
214 (RLQELTEKL; listed as Homo sapiens) [compound 214] | + | NHL, AML | 
215 (VMQDIVYKL; listed as Homo sapiens) [compound 215] | + | NHL, Esophageal Cancer, Urinary bladder cancer | HNSCC
217 (ALDEPPYLTV; listed as Homo sapiens) [compound 217] | + | NHL, Melanoma | AML
218 (ALGEEWKGYVV; listed as Homo sapiens) [compound 218] | + | Esophageal Cancer | AML
219 (ALLNLLESA; listed as Homo sapiens) [compound 219] | ++ | NHL, AML, OC | 
225 (ILQERELLPV; listed as Homo sapiens) [compound 225] | + | NHL, Melanoma, OC, Urinary bladder cancer | 
226 (AMNISVPQV; listed as Homo sapiens) [compound 226] | + |  | AML, PrC, Brain Cancer, Gallbladder Cancer, CCC, HNSCC, NHL, NSCLC, OC, SCLC, Uterine Cancer
227 (FLAEASVMTQL; listed as Homo sapiens) [compound 227] | ++ | NHL | 
228 (FLGGLSPGV; listed as Homo sapiens) [compound 228] | ++ | NHL, Esophageal Cancer | SCLC, BRCA, Uterine Cancer, AML, HNSCC
229 (FLLNLQNCHL; listed as Homo sapiens) [compound 229] | ++ | NHL | 
231 (FLYIRQLAI; listed as Homo sapiens) [compound 231] | + | AML | Uterine Cancer
232 (FMHQIIDQV; listed as Homo sapiens) [compound 232] | + | RCC, CRC, Melanoma | Uterine Cancer
234 (GLDDAEYAL; listed as Homo sapiens) [compound 234] | + | NHL, AML, Melanoma, Urinary bladder cancer | Uterine Cancer, HNSCC
235 (GLDDLLLFL; listed as Homo sapiens) [compound 235] | + | SCLC, PC, NHL, AML, Urinary bladder cancer, Uterine Cancer, Gallbladder Cancer, Bile Duct Cancer | BRCA, HNSCC
236 (GLLESGRHYL; listed as Homo sapiens) [compound 236] | +++ | NHL, AML | 
237 (GLQENLDVVV; listed as Homo sapiens) [compound 237] | + | SCLC, NHL, Melanoma, Uterine Cancer | AML
238 (GLVETELQL; listed as Homo sapiens) [compound 238] | + | NHL, AML | 
240 (ILARDILEI; listed as Homo sapiens) [compound 240] | ++ | NHL, Urinary bladder cancer | Melanoma
241 (ILGDILLKV; listed as Homo sapiens) [compound 241] | + | AML | 
242 (ILLGIQELL; listed as Homo sapiens) [compound 242] | ++ | NHL, AML | BRCA

Substance | Peptide Presentation [1] | Other relevant organs/diseases [2] | Additional Entities [2]
243 (ILPTLEKELFL; listed as Homo sapiens) [compound 243] | + | AML | 
244 (ILQALAVHL; listed as Homo sapiens) [compound 244] | ++ | NHL, AML, OC | 
245 (KIMDYSLLLGV; listed as Homo sapiens) [compound 245] | + | SCLC, RCC, OC | 
248 (KTVEPPISQV; listed as Homo sapiens) [compound 248] | + | NHL | 
249 (LLPTGVFQV; listed as Homo sapiens) [compound 249] | + | Urinary bladder cancer | 
254 (QLIPKLIFL; listed as Homo sapiens) [compound 254] | +++ | NHL, Melanoma | 
255 (YLFEEAISM; listed as Homo sapiens) [compound 255] | + | NHL | 
258 (RLDYITAEI; listed as Homo sapiens) [compound 258] | ++ | RCC, NHL, AML, Melanoma | GC, Uterine Cancer
260 (SLDDVEGMSV; listed as Homo sapiens) [compound 260] | ++ | NHL, Gallbladder Cancer, Bile Duct Cancer | SCLC, HNSCC
261 (SLVEAQGWLV; listed as Homo sapiens) [compound 261] | ++ | NHL | AML
263 (SQWEDIHVV; listed as Homo sapiens) [compound 263] | ++ | NHL, AML | 
264 (TILDYINVV; listed as Homo sapiens) [compound 264] | +++ | Brain Cancer, NHL, AML, BRCA, OC, Uterine Cancer | HNSCC
266 (TLLDQLDTQL; listed as Homo sapiens) [compound 266] | + | NHL, OC, Urinary bladder cancer | CRC, BRCA, Uterine Cancer
267 (TLLDWQDSL; listed as Homo sapiens) [compound 267] | + | NHL, AML, Melanoma | 
268 (TLLQVFHLL; listed as Homo sapiens) [compound 268] | ++ | NHL | Uterine Cancer
271 (VIRNIVEAA; listed as Homo sapiens) [compound 271] | ++ | GC, CRC, PC, AML, Esophageal Cancer | 
273 (VLGEYSYLL; listed as Homo sapiens) [compound 273] | + |  | NHL, HNSCC
275 (VLLFIEHSV; listed as Homo sapiens) [compound 275] | + | NHL | Melanoma
276 (VLNDGAPNV; listed as Homo sapiens) [compound 276] | + | NSCLC, SCLC, NHL, Melanoma, Uterine Cancer, Gallbladder Cancer, Bile Duct Cancer | 
278 (YLDDLLPKL; listed as Homo sapiens) [compound 278] | ++ | PC, NHL | 
280 (YTLDSLYWSV; listed as Homo sapiens) [compound 280] | + | NHL | SCLC, BRCA, Melanoma, HNSCC
281 (NLLDDRGMTAL; listed as Homo sapiens) [compound 281] | +++ | NHL, AML | 
282 (LLRDGIELV; listed as Homo sapiens) [compound 282] | +++ | NHL, Melanoma, OC | 
283 (ILQPMDIHV; listed as Homo sapiens) [compound 283] | +++ | NHL | 
284 (LLSAAEPVPA; listed as Homo sapiens) [compound 284] | +++ | NHL | 
289 (ILEEQPMDMLL; listed as Homo sapiens) [compound 289] | +++ |  | Uterine Cancer
